Measurements published in paper PMC12632252.
These are yes or no findings as the source states them, for the method shown. Binding seen in cells or lysates may run through a third protein. A result given as binding can be weak or reduced; the word gives no strength. One block for each substance: values may come before it.

Amino acid sequences for entries named in this document (tags omitted). A change or cut given only in a name is not applied to a line headed by its entry.
UniProt P26936: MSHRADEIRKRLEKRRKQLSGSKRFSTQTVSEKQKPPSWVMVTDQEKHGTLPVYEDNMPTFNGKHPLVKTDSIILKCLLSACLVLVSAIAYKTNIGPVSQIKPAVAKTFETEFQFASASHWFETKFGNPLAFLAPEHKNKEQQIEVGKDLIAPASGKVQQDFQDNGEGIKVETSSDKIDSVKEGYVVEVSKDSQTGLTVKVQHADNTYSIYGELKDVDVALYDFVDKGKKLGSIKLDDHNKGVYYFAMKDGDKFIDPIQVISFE
UniProt P24282: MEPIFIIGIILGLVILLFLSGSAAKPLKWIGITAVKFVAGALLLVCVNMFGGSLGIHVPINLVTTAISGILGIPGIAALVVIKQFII

Legend:
[1] = target: A88C SpoIVFA (Bacillus subtilis) (UniProt P26936); assay: cross-linking; in vivo disulfide crosslinking in E. coli as in a1 but stringent: Cu2+(phenanthroline)3 in a 10-fold dilution series (1 mM to 0.1 µM) or at 100 µM, for 5 min at 37°C; anti-SpoIVFA immunoblot
[2] = target: A88C SpoIVFA (Bacillus subtilis) (UniProt P26936); assay: cross-linking; in vivo disulfide crosslinking in E. coli coexpressing BofA and SpoIVFA variants with Cys-less SpoIVFB and Pro-σK(1-127); cells treated with 1 mM Cu2+(phenanthroline)3 for 60 min at 37°C in 10 mM Tris-HCl pH 8.1; controls with DTT or Cu followed by DTT; anti-SpoIVFA or anti-MBP immunoblot
[3] = target: V84C SpoIVFA (Bacillus subtilis) (UniProt P26936); assay: as above
[4] = target: S87C SpoIVFA (Bacillus subtilis) (UniProt P26936); assay: as above
[5] = target: V84C SpoIVFA (Bacillus subtilis) (UniProt P26936); assay: cross-linking; in vivo disulfide crosslinking in E. coli as in a1 but stringent: Cu2+(phenanthroline)3 in a 10-fold dilution series (1 mM to 0.1 µM) or at 100 µM, for 5 min at 37°C; anti-SpoIVFA immunoblot

binding [3]: binds
Substance: T65C BofA (full-length) (from UniProt P24282)

binding [4]: binds
Substance: I82C MBPΔ27BofA (from UniProt P24282) (domain or fragment)

binding [5]: binds | binding [3]: binds
Substance: T65C MBPΔ27BofA (from UniProt P24282) (domain or fragment)

binding [3]: binds
Substance: V81C BofA (full-length) (from UniProt P24282)

Continued, substance first:

Substance: I86C MBPΔ27BofA (from UniProt P24282) (domain or fragment)
binding [1]: binds | binding [2]: binds

Substance: I86C BofA (full-length) (from UniProt P24282)
binding [2]: binds

Substance: V81C MBPΔ27BofA (from UniProt P24282) (domain or fragment)
binding [5]: binds | binding [3]: binds
